Test results: PubChem BioAssay AID1224864 (Chung Lab, Department of Pediatrics, Emory University, 2016)
The other results are listed elsewhere or left out.

Protein sequences, listed by entry. Tags and fused reporters are not part of them.
UniProt P13569, whole entry, looked up: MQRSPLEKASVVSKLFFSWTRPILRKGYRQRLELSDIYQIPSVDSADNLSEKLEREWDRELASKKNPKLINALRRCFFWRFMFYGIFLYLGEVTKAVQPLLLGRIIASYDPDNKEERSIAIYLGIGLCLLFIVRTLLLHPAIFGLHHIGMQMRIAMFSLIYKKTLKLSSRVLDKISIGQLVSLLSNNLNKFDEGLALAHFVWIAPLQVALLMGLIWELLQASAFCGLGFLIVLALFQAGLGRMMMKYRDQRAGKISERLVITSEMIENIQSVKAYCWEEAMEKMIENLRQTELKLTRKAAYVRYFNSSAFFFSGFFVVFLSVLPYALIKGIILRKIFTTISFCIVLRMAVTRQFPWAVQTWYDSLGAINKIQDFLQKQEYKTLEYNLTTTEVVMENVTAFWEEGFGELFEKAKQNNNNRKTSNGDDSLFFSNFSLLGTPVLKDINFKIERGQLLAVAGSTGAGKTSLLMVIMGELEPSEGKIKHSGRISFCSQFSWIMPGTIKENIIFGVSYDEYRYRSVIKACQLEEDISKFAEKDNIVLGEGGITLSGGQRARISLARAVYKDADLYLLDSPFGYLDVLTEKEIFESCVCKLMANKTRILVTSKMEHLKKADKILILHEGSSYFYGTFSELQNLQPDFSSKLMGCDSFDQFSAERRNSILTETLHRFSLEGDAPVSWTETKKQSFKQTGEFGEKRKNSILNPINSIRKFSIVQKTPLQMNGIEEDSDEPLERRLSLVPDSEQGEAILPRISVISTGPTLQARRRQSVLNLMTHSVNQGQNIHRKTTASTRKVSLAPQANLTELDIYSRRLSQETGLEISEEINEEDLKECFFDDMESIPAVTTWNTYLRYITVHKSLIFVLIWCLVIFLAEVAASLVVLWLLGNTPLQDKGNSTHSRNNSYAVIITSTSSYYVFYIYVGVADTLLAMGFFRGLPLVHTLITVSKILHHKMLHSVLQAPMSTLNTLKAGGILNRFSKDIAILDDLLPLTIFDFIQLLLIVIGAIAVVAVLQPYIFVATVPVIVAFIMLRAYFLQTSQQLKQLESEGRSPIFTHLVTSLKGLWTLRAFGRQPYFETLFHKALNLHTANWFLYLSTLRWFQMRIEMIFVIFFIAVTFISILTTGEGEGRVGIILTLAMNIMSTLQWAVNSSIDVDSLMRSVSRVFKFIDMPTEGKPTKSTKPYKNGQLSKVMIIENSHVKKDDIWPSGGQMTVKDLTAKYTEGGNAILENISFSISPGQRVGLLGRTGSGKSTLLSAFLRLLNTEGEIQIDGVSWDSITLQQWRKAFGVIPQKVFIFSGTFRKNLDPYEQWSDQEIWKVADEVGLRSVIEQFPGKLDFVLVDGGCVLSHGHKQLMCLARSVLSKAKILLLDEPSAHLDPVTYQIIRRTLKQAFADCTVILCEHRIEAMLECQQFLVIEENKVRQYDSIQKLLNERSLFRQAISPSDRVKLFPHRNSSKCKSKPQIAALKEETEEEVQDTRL

target: Cystic fibrosis transmembrane conductance regulator (Homo sapiens) (UniProt P13569); assay: F508del-CFTR plasma membrane relocalization enhancers – imaging, HeLa, high-content microscopy, immunofluorescence, primary screen (AID 1224864); conditions: PM immunofluorescence imaging, 24 h, measured here: total cellular F508del-CFTR signal, at 10 µM, stronger effect = higher value, relative to vehicle wells set at 100;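 further: HeLa cells stably expressing F508del-CFTR stained with 3G11 antibody against NBD1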

SMILES | total CFTR intensity [%]
CN(C(=O)Cc1ccc(Cl)c(Cl)c1)[C@@H]1CCCC[C@H]1N1CCCC1 | 73
